The values that follow come from publication PMC7450096, “Structural mechanism for replication origin binding and remodeling by a metazoan origin recognition complex and its co-loader Cdc6” (Nature Communications, 2020).

No constants are given. Whether binding was seen depends on the method and setting. Some entries that bind do so weakly or less than the wild type. For some of these results: Where a sequence is shown, tags or fusion partners need not be part of it.

Assay [1] addresses T1, Drosophila Mcm7, N-terminally 6xHis-tagged (Drosophila) (UniProt Q9XYU0).
T1 sequence: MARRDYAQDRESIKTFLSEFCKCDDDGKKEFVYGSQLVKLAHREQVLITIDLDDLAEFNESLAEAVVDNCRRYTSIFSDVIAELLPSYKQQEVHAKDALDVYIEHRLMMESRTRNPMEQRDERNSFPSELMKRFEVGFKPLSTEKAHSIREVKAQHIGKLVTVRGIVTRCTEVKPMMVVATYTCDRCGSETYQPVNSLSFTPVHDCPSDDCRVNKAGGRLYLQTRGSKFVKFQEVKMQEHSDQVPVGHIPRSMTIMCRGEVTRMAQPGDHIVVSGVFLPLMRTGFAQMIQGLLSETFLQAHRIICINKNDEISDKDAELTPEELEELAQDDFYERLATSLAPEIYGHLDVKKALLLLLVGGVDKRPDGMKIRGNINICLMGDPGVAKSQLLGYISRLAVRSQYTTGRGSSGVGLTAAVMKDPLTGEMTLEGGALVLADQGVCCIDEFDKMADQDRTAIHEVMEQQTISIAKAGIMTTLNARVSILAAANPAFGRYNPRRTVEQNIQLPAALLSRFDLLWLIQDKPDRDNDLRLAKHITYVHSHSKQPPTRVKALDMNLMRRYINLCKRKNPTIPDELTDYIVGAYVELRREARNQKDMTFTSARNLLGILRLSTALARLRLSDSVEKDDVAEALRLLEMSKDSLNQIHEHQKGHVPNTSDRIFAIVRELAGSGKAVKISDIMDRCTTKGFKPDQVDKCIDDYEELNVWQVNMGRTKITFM
The assay can be described thus: co-purification (nickel affinity, amylose, gel filtration); Mcm2–7 subunits co-expressed in Hi5 cells; 6xHis-Mcm7 on HisTrap, then MBP-Mcm4 on amylose, TEV cleavage, Superose 6; 4 °C; subunits verified by SDS-PAGE and mass spectrometry. (In general: In gel filtration, larger molecules generally elute earlier.)

The target of assay [2] is T2, Drosophila Mcm4, N-terminally MBP-tagged (Drosophila) (UniProt Q26454).
T2 sequence: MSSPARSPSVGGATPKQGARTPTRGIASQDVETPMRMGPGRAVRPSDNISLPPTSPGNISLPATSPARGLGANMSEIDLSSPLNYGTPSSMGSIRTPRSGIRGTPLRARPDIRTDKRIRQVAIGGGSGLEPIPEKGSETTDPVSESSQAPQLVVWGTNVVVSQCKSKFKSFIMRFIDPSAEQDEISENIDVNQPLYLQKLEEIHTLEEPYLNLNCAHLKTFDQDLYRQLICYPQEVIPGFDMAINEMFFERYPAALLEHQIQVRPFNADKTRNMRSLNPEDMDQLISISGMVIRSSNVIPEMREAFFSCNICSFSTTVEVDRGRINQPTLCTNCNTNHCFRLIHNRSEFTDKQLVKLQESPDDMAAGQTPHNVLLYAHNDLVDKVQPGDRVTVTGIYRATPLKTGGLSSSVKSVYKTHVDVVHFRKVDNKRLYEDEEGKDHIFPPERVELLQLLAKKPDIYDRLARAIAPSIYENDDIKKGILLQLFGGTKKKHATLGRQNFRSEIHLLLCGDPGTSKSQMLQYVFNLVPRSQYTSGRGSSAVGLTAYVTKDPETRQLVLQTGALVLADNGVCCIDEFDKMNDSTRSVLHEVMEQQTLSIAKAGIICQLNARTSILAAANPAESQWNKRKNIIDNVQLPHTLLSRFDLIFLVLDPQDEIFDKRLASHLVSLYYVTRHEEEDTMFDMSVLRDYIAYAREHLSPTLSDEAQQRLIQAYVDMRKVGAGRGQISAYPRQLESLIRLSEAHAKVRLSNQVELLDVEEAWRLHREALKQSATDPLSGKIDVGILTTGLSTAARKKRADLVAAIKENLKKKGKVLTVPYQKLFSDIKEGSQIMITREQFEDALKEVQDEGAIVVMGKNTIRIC
Described as above.

Assay [3] has as its target T3, Drosophila Orc4, subunit of DmORC^Orc1ΔN (Drosophila) (UniProt Q9W102).
T3 sequence: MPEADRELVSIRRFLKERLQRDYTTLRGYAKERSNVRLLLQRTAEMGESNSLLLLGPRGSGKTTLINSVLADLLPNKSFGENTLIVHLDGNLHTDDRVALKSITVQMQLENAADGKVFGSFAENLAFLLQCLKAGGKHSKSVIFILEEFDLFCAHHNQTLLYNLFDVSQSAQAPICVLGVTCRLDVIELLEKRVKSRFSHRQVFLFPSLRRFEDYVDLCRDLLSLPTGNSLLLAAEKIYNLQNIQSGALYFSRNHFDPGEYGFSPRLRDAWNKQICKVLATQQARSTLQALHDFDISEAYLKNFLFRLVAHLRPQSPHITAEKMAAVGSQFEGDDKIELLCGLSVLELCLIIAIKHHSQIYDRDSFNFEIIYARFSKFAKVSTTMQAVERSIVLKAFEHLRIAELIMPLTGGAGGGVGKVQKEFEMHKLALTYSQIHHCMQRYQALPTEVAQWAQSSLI
Put plainly: cryo-EM structure; DmORC^Orc1ΔN (2.5 μM), duplex DNA (3 μM; 60 bp AT-rich, 84 bp AT-rich, 60 bp poly(dA·dT) or 60 bp GC-rich) and DmCdc6ΔN (6.8 μM) assembled at 25 °C in 25 mM HEPES-KOH pH 7.6, 250 mM potassium acetate, 10 mM magnesium acetate, 1 mM DTT, 1 mM ATP; purified by gel filtration; both purified.

B1: Drosophila Mcm6 (protein, UniProt Q9V461 1-817)
chain: MDVADAQVGQLRVKDEVGIRAQKLFQDFLEEFKEDGEIKYTRPAASLESPDRCTLEVSFEDVEKYDQNLATAIIEEYYHIYPFLCQSVSNYVKDRIGLKTQKDCYVAFTEVPTRHKVRDLTTSKIGTLIRISGQVVRTHPVHPELVSGVFMCLDCQTEIRNVEQQFKFTNPTICRNPVCSNRKRFMLDVEKSLFLDFQKIRIQETQAELPRGCIPRAVEIILRSELVETVQAGDRYDFTGTLIVVPDVSVLAGVGTRAENSSRHKPGEGMDGVTGLKALGMRELNYRMAFLACSVQATTARFGGTDLPMSEVTAEDMKKQMTDAEWHKIYEMSKDRNLYQNLISSLFPSIYGNDEVKRGILLQQFGGVAKTTTEKTSLRGDINVCIVGDPSTAKSQFLKQVSDFSPRAIYTSGKASSAAGLTAAVVRDEESFDFVIEAGALMLADNGICCIDEFDKMDQRDQVAIHEAMEQQTISIARAGVRATLNARTSILAAANPINGRYDRSKSLQQNIQLSAPIMSRFDLFFILVDECNEVVDYAIARKIVDLHSNIEESVERAYTREEVLRYVTFARQFKPVISQEAGHMLVENYGHLRQRDTGTSGRSTWRITVRQLESMIRLSEAMAKLECSNRVLERHVKEAFRLLNKSIIRVEQPDIHLDDDEGLDMDDGIQHDIDMENNGAAANVDENNGMDTSASGAVQKKKFTLSFEDYKNLSTMLVLHMRAEEARCEVEGNDTGIKRSNVVTWYLEQVADQIESEDELISRKNLIEKLIDRLIYHDQVIIPLKTSTLKPRIQVQKDFVEEDDPLLVVHPNYVVE
As for B1, the binding entry in assay [1] is listed as “binds”.

B2: Drosophila Mcm2 (protein, UniProt P49735 1-887)
chain: MDNPSSPPPNTPSDAAERRDLRAAMTSPVGDFEPFENEDEILGDQTVRDEAEEEDGEELFGDNMENDYRPMPELDHYDPALLDDEDDFSEMSQGDRFAAESEMRRRDRAAGIHRDDRDLGFGQSDDEDDVGPRAKRRAGEKAAVGEVEDTEMVESIENLEDTKGHSTKEWVSMLGPRTEIANRFQSFLRTFVDERGAYTYRDRIRRMCEQNMSSFVVSYTDLANKEHVLAYFLPEAPFQMLEIFDKVAKDMVLSIFPTYERVTTEIHVRISELPLIEELRTFRKLHLNQLVRTLGVVTATTGVLPQLSVIKYDCVKCGYVLGPFVQSQNTEIKPGSCPECQSTGPFSINMEQTLYRNYQKITLQESPGRIPAGRIPRSKDVILLADLCDQCKPGDELEVTGIYTNNYDGSLNTDQGFPVFATVIIANHVVVKDSKQVVQSLTDEDIATIQKLSKDPRIVERVVASMAPSIYGHDYIKRALALALFGGESKNPGEKHKVRGDINLLICGDPGTAKSQFLKYTEKVAPRAVFTTGQGASAVGLTAYVRRNPVSREWTLEAGALVLADQGVCLIDEFDKMNDQDRTSIHEAMEQQSISISKAGIVTSLQARCTVIAAANPIGGRYDPSMTFSENVNLSEPILSRFDVLCVVKDEFDPMQDQQLAKFVVHSHMKHHPSEEEQPELEEPQLKTVDEIPQDLLRQYIVYAKENIRPKLTNIDEDKIAKMYAQLRQESFATGSLPITVRHIESVIRMSEAHARMHLRENVMEADVSMAIRMMLESFIEAQKFSVMKKMRSTFQKYLSFQKDHSELLFFILRQLTLDQLAYIRCKDGPGATHVEIMERDLIERAKQLDIVNLKPFYESDLFRTNGFSYDPKRRIILQIVVDGNTA
Regarding B2, the binding result in assay [2] and in assay [1] was “binds” each time.

B3: Drosophila Mcm5 (protein, UniProt Q9VGW6 1-733)
chain: MEGFDDAGVFFSDNFGGDNQQDAQINLQAVKKKYKEFIRTFNEENFFYKYRDTLKRNYLNGRYFLEIEMEDLVGFDETLADKLNKQPTEHLEIFEEAAREVADEITAPRPEHEEHMHDIQILLSSNANPTNIRQLKSDCVSKLVKIAGIIVAASGISAKATRMSIQCLSCSTVIPNLKVNPGLEGYALPRKCNTEQAGRPKCPLDPFFIMPDKCKCVDFQTLKLQELPDFVPQGEIPRHLQLFCDRSLCERVVPGNRVLIQGIYSIRKVGKPSRRDGREKAVVGVRAPYMRVVGITVDSEGAGAISRYSNITSDEEEHFRRMAASGDIYERLSQSLAPSIFGSRDIKKAITCMLFGGSRKRLPDGLCRRGDINVLLLGDPGTAKSQLLKFVEKVAPIAVYTSGKGSSAAGLTASVMKDPQTRNFVMEGGAMVLADGGVVCIDEFDKMREDDRVAIHEAMEQQTISIAKAGITTTLNSRCSVLAAANSIFGRWDDTKGEENIDFMPTILSRFDMIFIVKDIHDESRDITLAKHIINVHLSSNKSAPSEPAEGEISLSTFKKYIHYCRTHCGPRLSEAAGEKLKSRYVLMRSGAGQQEKASDKRLSIPITVRQLEAVIRISESLAKIRLQPFATDEHVNEALRLFQVSTLDAAMTGSLAGAEGFTTEEDQETLNRIEKQLKRRFAIGSQVSEQNILQDFLRQKYEERTVMKVIHTMIRRGELQHRMQRKMLYRIC
As to B3, the binding entry in assay [2] and in assay [1] was “binds” in each case.

B4: Drosophila Mcm3 (protein, UniProt Q9XYU1 1-819)
chain: MAHEGEQFIKDIQREYVDFLDDEEDQGIYAGHVKDMIAEKSKRLIVNVNDLKRKNPQRALGLLSNAADEQLAFGRALKEYASTVDPGYAKMHEDLFVGFEGCFGNRHVTPRSLTSIYLGNMVCVEGIVTKVSLIRPKVVRSVHYCPNTRKVMERKYTDLTSFEAVPSGAAYPTKDEDGNLLETEYGLSVYKDHQTLTIQEMPEKAPAGQLPRSVDIVCDDDLVDRCKPGDRVQIVGSYRCLPGKRGGYTSGTFRTVLLANNISLLSKESNLDISREDIMLCKKLAKNNDIFELLSKSLAPSIHGHAYVKQAILCLLLGGVEKILPNGTRLRGDINVLLIGDPSVAKSQLLRYVLNTAPRAIPTTGRGSSGVGLTAAVTTDQETGERRLEAGAMVLADRGVVCIDEFDKMSDIDRTAIHEVMEQGRVTISKAGIHASLNARCSVLAAANPVYGRYDQYKTPMENIGLQDSLLSRFDLLFVMLDVIDSDVDQMISDHVVRMHRYRNPKEADGEPLSMGSSYADSLSFVSSSEEKKDTEVYEKYDALLHGKSRQRHEKILSVEFMRKYIHIAKCMKPKLGEQACEAIANEYSRLRSQEAVETDVARTQPITARTLETLIRLSTAHARARMSKSVTIDDAHAAIELVQFAYFKKVLDKDRPSKRRRNSGSDAEDDNGEASSQRSPSRRSKRTRTATVGADSDEEDIEPPQPDAGDLTRRETRRSLPARSVAMLMASPSSEEQSVATSTTEPAIISDARLGEFKNNLQRLFREAREQSLALARITTAINVGSQEPFTAGEIEAAVHRMTEDNQIMVADDIVFLI
On to B4, for which, in assay [2], the binding entry was “binds”.

B5: Drosophila Orc1 lacking the N-terminal 439 residues (Orc1ΔN), subunit of DmORC^Orc1ΔN (domain or fragment, UniProt O16810 440-924)
chain: PRRSIHLSNIVEQRVFEDDEIISTPKRGRSKKTVQDNDEDYSPKKSVQKTPTRTRRSSTTTKTATTPSKGITTATATPMTPSQKMKKIRAGELSPSMQQRTDLPAKDSSKSELQLAREQLHVSVVPKSLPCREREFENIYAFLEGKIQDQCGGCMYVSGVPGTGKTATVTGVIRTLQRMAKQNELPAFEYLEINGMRLTEPRQAYVQIYKQLTGKTVSWEQAHALLEKRFTTPAPRRVTTVLLVDELDILCNRRQDVVYNLLDWPTKSAAKLVVVTIANTMDLPERLLMGKVTSRLGLTRLTFQPYSHKQLQEIVTARLGGSETFKGEAVQLVARKVAAVSGDARRALDICRRATEIADTAAVKCVTMLHVQQALAEMIASAKVQAIRNCSRMEQIFLQAIAAEVTRTGVEETTFMGVYQQVETIAAFMGVTFPPPGRALRLCSKLGAERLIISEHSRNDLFQKILLNVSADDIHYALRVEEMVN
On to B5, for which the binding result in assay [3] is listed as “binds”.
